Experimental data from PubChem BioAssay AID504465 (National Center for Advancing Translational Sciences (NCATS), 2011).
Hit rate of the full screen: of about 2,100 compounds, about 210 (10%) were called active. This list was built around the results that the source calls inconclusive (neither active nor inactive); the mix of calls is not that of the screen. Calls follow the shape of the dose curve; as a rule, active = well fitted inhibition curve with a large enough effect; inconclusive = small, poorly fitted or top-dose-only effect, or effect the other way; inactive = no such curve, though single readings can be large or run the other way. Where the call is inconclusive, the potency comes from a doubtful curve fit.

Assay: IN Cell qHTS Assay for Inhibitors of the mTORC1 Signaling Pathway in MEF (Tsc2-/-, p53-/-) Cells: Sytravon; also: nearly all actives have a fitted effect of over 60% in size
Details: phospho-rpS6 immunofluorescence, 24 h; activity, negative = inhibition: at 38.3 µM (top of the series)
How it was run: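 Immunofluorescence of rpS6 phosphorylation (Ser235/236) in mouse embryonic fibroblasts lacking Tsc2 and p53, after 24 h compound exposure; Hoechst-normalized signal imaged, each well scored as % active cells relative to rapamycin (7.5 nM) and DMSO controls.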
Potency is read from the fitted curve at half-maximal effect.

Row | Structure (SMILES) | Potency | activity, negative = inhibition
1 | CCS(=O)(=O)c1ncc(Cl)c(C(=O)N(Cc2ccccc2)Cc2ccco2)n1 | active: 3.69 µM | 
2 | CCOC(=O)c1ccc(N2C(=O)c3n[nH]c(-c4cccs4)c3C2c2ccc(O)c(OC)c2)cc1 (stereo not drawn) | inconclusive: 23.3 µM [falling, single point] | 
3 | Cc1cccc(NC(=O)Cn2nc(-c3ccc(Cl)cc3)c3ccccc3c2=O)c1 |  | inactive: -100%
4 | COc1cccc(C(=O)Nc2cccc(OCc3cc(=O)n4cc(C)ccc4n3)c2)c1 | inconclusive: 18.5 µM [falling, single point] | 
5 | CCN1CCC(N(Cc2ccc(F)cc2)C(=O)Nc2cccc(C(F)(F)F)c2)CC1 | inconclusive: 23.3 µM [falling, single point] | 
6 | CCOc1ccc(CNC(=O)C2CCN(S(=O)(=O)c3ccc4c(ccn4C)c3)CC2)cc1 |  | inactive: 0.0324%
7 | COc1ccc(OCCn2cc(C(=O)c3ccco3)c3ccccc32)cc1 | inconclusive: 0.585 µM [falling, full curve] | 
8 | CC(C)c1ccc(NC(=O)CSC2=Nc3ccccc3C3=NC(CCC(=O)NCc4ccc(F)cc4)C(=O)N23)cc1 (stereo not drawn) |  | inactive: -1.18%
9 | O=c1c(-c2cc(-c3ccc(F)cc3)nc3c2COc2ccc(Cl)cc2-3)coc2ccc(F)cc12 |  | inactive: 19.8%
10 | CCOc1ccc(C(=O)Nc2ccc3oc(-c4cccc5ccccc45)nc3c2)cc1 | inconclusive: 16.5 µM [falling, single point] | 
11 | COc1ccc(C(=O)Nc2nc(-c3nnn(-c4ccc(F)cc4F)c3C)ns2)cc1 | inconclusive: 23.3 µM [falling, single point] | 
12 | CCOc1ccc(NC(=O)Cn2c(=O)cc(C)c3c(C)nn(C)c32)cc1 |  | inactive: -14.9%
13 | COc1cc(CNCCSc2nnnn2C)ccc1OCc1ccccc1C | inconclusive: 0.414 µM [falling, partial curve, poor fit] | 
14 | CCN(CC)CCn1c(=N)n(CCOc2ccccc2Cl)c2ccccc21 | active: 3.69 µM | 
15 | CCCN1CCN(CCCNC(=O)c2ccc3c(c2)sc2nc(-c4ccc(OCC)cc4)cn23)CC1 | active: 1.85 µM | 
16 | CC1CCN(c2csc3ccc(F)cc3c2=O)CC1 | inconclusive: 26.1 µM [falling, single point] | 
17 | Cc1cc(Nc2cccc(C(F)(F)F)c2)nc2ccc(NC(=O)c3cccnc3)cc12 | inconclusive: 23.3 µM [falling, single point] | 
18 | CCOC(=O)N1CCN(Cc2nc3cc(NC(=O)c4ccc([N+](=O)[O-])cc4)ccc3n2C(C)C)CC1 | inconclusive: 26.1 µM [falling, single point] | 
19 | CCOc1ccc(CCNC(=O)Cn2nc(CC)n3c(cc4c(OC)cccc43)c2=O)cc1OCC | inconclusive: 4.65 µM [falling, single point] | 
20 | Cc1ccccc1CS(=O)(=O)c1ncc(Cl)c(C(=O)Nc2nnc(C(C)C)s2)n1 | active: 13.1 µM | 
21 | O=C(NCc1cccnc1)C1CCN(Cc2cc3ccccc3n2Cc2ccccc2)CC1 | inconclusive: 23.3 µM [falling, single point] | 
22 | COc1ccc2c(c1)Cc1sc(NC(=O)c3ccc(Cl)cc3)nc1-2 | inconclusive: 23.3 µM [falling, single point] | 

Looked up by structure from the entries so far, three records:
Row | Structure (SMILES) | Potency | activity, negative = inhibition
16 | CC1CCN(c2csc3ccc(F)cc3c2=O)CC1 | inconclusive: 26.1 µM [falling, single point] | 
22 | COc1ccc2c(c1)Cc1sc(NC(=O)c3ccc(Cl)cc3)nc1-2 | inconclusive: 23.3 µM [falling, single point] | 
14 | CCN(CC)CCn1c(=N)n(CCOc2ccccc2Cl)c2ccccc21 | active: 3.69 µM | 

Additional compounds:

Row | Structure (SMILES) | Potency | activity, negative = inhibition
23 | Cc1ccc(NC(=O)Cn2cnc3c(oc4ccccc43)c2=O)cc1 | inconclusive: 5.21 µM [falling, single point] | 
24 | O=C(c1ccc(CS(=O)c2ccccc2Cl)o1)N1CCN(c2cccc(C(F)(F)F)c2)CC1 (stereo not drawn) | inconclusive: 2.33 µM [falling, partial curve, poor fit] | 
25 | CC(C(=O)NCc1cccc(Br)c1)n1ncn2cccc2c1=O (stereo not drawn) | active: 1.47 µM | 
26 | Cc1ccccc1OCC(=O)Nc1c(C)ccc2nsnc12 | inconclusive: 18.5 µM [falling, partial curve, poor fit] | 
27 | COc1ccc(NS(=O)(=O)c2ccc3c(c2)CCCN3C(=O)C2CCC2)cc1OC |  | inactive: -4.59%
28 | Cc1ccc(C)c(CN2CCC(CNC(=O)C(CC(C)C)N3Cc4ccccc4C3=O)CC2)c1 (stereo not drawn) | inconclusive: 26.1 µM [falling, single point] | 
29 | COc1ccc(NC(=O)CCCS(=O)(=O)c2nc(-c3ccccc3OC)cc(C(F)(F)F)n2)c(OC)c1 | inconclusive: 29.3 µM [falling, partial curve, poor fit] | 
30 | O=C(CS(=O)(=O)c1nc(-c2ccc(Cl)cc2)cn1-c1ccccc1)Nc1cccc(Cl)c1 | inconclusive: 23.3 µM [falling, single point] | 
31 | COc1cccc(C2C(C(N)=O)=C(C)Nc3nc(CCCO)nn32)c1 (stereo not drawn) |  | inactive: -9.38%
32 | Cc1ccccc1CN1C(=O)C(O)(c2c[nH]c3ccccc23)c2cc(Cl)ccc21 (stereo not drawn) | inconclusive: 26.1 µM [falling, partial curve, poor fit] | 
33 | CCCCN1C(C(=O)c2ccccc2)=C(OC(=O)CC)c2ccccc2S1(=O)=O | inconclusive: 13.1 µM [falling, partial curve, poor fit] | 
34 | CCCN1CCN(c2ncnc3sc(C(=O)Nc4ccc(OC(F)(F)F)cc4)c(C)c23)CC1 |  | inactive: -14.8%
35 | Cc1nnc(N2CCCC(C(=O)Nc3cc(F)ccc3F)C2)c2nn(-c3ccccc3)c(C)c12 (stereo not drawn) |  | inactive: -20.1%
36 | CCCCN(CC)CCCNC(=O)c1ccc2c(c1)N(Cc1ccc(C)cc1)C(=O)c1ccccc1S2 |  | inactive: 6.25%
37 | Cc1ccc2onc(CC(=O)Nc3cccc(C(F)(F)F)c3)c2c1 |  | inactive: -16.8%
38 | CCOc1ccc(-n2nc(CO)c(C(=O)NCc3cccs3)n2)cc1 |  | inactive: -14%
39 | COc1ccc(NC(=O)c2ccco2)cc1NC(=O)COc1ccc(Cl)c(C)c1 |  | inactive: -24%
40 | CCOc1ccc(N2C(=O)c3n[nH]c(-c4cccs4)c3C2c2cccc(F)c2)cc1 (stereo not drawn) | inconclusive: 26.1 µM [falling, partial curve, poor fit] | 
41 | CCc1ccc(NC(=O)c2ccc(F)c(S(=O)(=O)NCc3ccc(Cl)c(Cl)c3)c2)cc1 |  | inactive: 6.25%
42 | Cc1cccc(NC(=O)c2cc3c(=O)n4cccc(C)c4nc3s2)c1C | inconclusive: 18.5 µM [falling, partial curve, poor fit] | 
43 | CC(=O)c1ccc(NC(=O)CN2C(=O)CCc3ccccc32)cc1 | inconclusive: 26.1 µM [falling, single point] | 
